PubChem BioAssay AID1259405 – NCATS, 2018

Aim: 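Mouse-designed siRNAs used to find CHO productivity engineering targets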 (primary screen)
Cell system: Chinese hamster CHO-K1 ovary cells with stable secreted eGFP expression
Reagent: single siRNA against mouse genes, 0.8 pmol siRNA per well (2 µl of 400 nM stock)
Duration: 3 days
Read-out: 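Percent of the per-plate non-targeting control median for intracellular GFP per well by laser scanning cytometry and for cell viability by ATP luminescence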
Reading the numbers: GFP, % of control: higher = more GFP per well, higher productivity; viability (ATP), % of control: higher = more viable cells (more ATP)
Rule for the call: 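a knock-down is called active if GFP reaches 120% or more of non-targeting control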
In all, the deposit lists about 50,000 reagents; shown is a part drawn at random. About 4,000 of all reagents (8%) were called active. 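Mouse siRNA library applied to hamster cells; one well for each siRNA.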 Reagents against one gene are numbered here.

gene	reagent no.	GFP, % of control	viability (ATP), % of control	Call
Spock1 (GeneID 20745)	1	57.4	79.5	inactive
Spock1 (GeneID 20745)	2	82.3	80.3	inactive
Spock1 (GeneID 20745)	3	64.3	66.7	inactive
Gpr173 (GeneID 70771)	1	72.1	81.6	inactive
Gpr173 (GeneID 70771)	2	62.8	77.3	inactive
Gpr173 (GeneID 70771)	3	76.4	84.6	inactive
Kank3 (GeneID 80880)	1	59	69.4	inactive
Kank3 (GeneID 80880)	2	68.4	52.1	inactive
Kank3 (GeneID 80880)	3	73.5	51.9	inactive
Prss8 (GeneID 76560)	1	86.4	86	inactive
Prss8 (GeneID 76560)	2	56.4	32	inactive
Prss8 (GeneID 76560)	3	67.6	36.5	inactive
C1qtnf7 (GeneID 109323)	1	45.2	38.8	inactive
C1qtnf7 (GeneID 109323)	2	84.7	49.3	inactive
C1qtnf7 (GeneID 109323)	3	59.3	43.3	inactive
Armc12 (GeneID 67645)	1	63.5	84.2	inactive
Armc12 (GeneID 67645)	2	56.3	34.7	inactive
Armc12 (GeneID 67645)	3	84.6	95.8	inactive
Eif4g2 (GeneID 13690)	1	208	147	active
Eif4g2 (GeneID 13690)	2	125	94.6	active
Eif4g2 (GeneID 13690)	3	89.5	76.1	inactive
Reg3d (GeneID 30053)	1	25.5	28.6	inactive
Reg3d (GeneID 30053)	2	170	72.5	active
Reg3d (GeneID 30053)	3	43	62.8	inactive
Tarbp2 (GeneID 21357)	1	97.8	45.1	inactive
Tarbp2 (GeneID 21357)	2	78.2	63.5	inactive
Tarbp2 (GeneID 21357)	3	60.9	65.6	inactive
Adamtsl5 (GeneID 66548)	1	36.5	58.7	inactive
Adamtsl5 (GeneID 66548)	2	75.7	119	inactive
Adamtsl5 (GeneID 66548)	3	98.5	73.3	inactive
Akt1 (GeneID 11651)	1	83.1	62.5	inactive
Akt1 (GeneID 11651)	2	114	52.1	inactive
Akt1 (GeneID 11651)	3	102	85.7	inactive
Ndc1 (GeneID 72787)	1	94	46.9	inactive
Ndc1 (GeneID 72787)	2	55.9	43.9	inactive
Ndc1 (GeneID 72787)	3	76.9	90	inactive
Rspo1 (GeneID 192199)	1	102	57.4	inactive
Rspo1 (GeneID 192199)	2	103	74.7	inactive
Rspo1 (GeneID 192199)	3	81.1	88.8	inactive
Dnajc5g (GeneID 231098)	1	70.1	86.8	inactive
Dnajc5g (GeneID 231098)	2	14.9	44.2	inactive
Dnajc5g (GeneID 231098)	3	81.9	108	inactive
Aptx (GeneID 66408)	1	44.3	56.2	inactive
Aptx (GeneID 66408)	2	64.5	72.7	inactive
Aptx (GeneID 66408)	3	57.5	60.2	inactive
Dnal1 (GeneID 105000)	1	111	82.6	inactive
Dnal1 (GeneID 105000)	2	77.4	80.8	inactive
Dnal1 (GeneID 105000)	3	77.4	70.3	inactive
Fgfr4 (GeneID 14186)	1	109	84.9	inactive
Slc12a8 (GeneID 171286)	1	85.2	97.5	inactive
Slc12a8 (GeneID 171286)	2	47.1	61.5	inactive
Slc12a8 (GeneID 171286)	3	128	67.9	active
Msh4 (GeneID 55993)	1	63.5	83.8	inactive
Msh4 (GeneID 55993)	2	87.1	59.3	inactive
Msh4 (GeneID 55993)	3	67.4	47.4	inactive
Aste1 (GeneID 66595)	1	61.1	104	inactive
Aste1 (GeneID 66595)	2	95	93.7	inactive
Aste1 (GeneID 66595)	3	127	76.2	active

Active calls, among the entries above:
gene	reagent no.	GFP, % of control	viability (ATP), % of control	Call
Eif4g2 (GeneID 13690)	1	208	147	active
Eif4g2 (GeneID 13690)	2	125	94.6	active
Reg3d (GeneID 30053)	2	170	72.5	active
Slc12a8 (GeneID 171286)	3	128	67.9	active
Aste1 (GeneID 66595)	3	127	76.2	active
